{"source": "patent US11266616B2", "about": "“Compositions and methods for inhibiting kinase activity” (BRANDEIS UNIVERSITY, priority 2016, dated 2022)", "system": "HEK293 cells", "assay": "Delivery of sGFP-monobody fusion polypeptides into cultured HEK293 cells (microscopy)", "type": "cell-based, human", "details": "for delivery into HEK293 cells: FIG. 17F", "data": [{"molecule": "sGFP-Mb60: fusion polypeptide of supercharged GFP and inhibiting monobody Mb60 (aka Mb2) (protein, left off: large carriers) GSVSSVPTKLEVVAATPTSLLISWDAPAVTVVHYVITYGETGGNSPVQEFTVPGSKSTATISGLKPGVDYTITVYAIDFYWGSYSPISINYRT", "values": [{"measurement": "delivery into HEK293 cells", "result": "delivered into cells"}, {"measurement": "exposure time for optimal cell delivery", "setting": "HEK293 cells, FIG. 17D", "result": 7, "unit": "h"}]}, {"molecule": "sGFP-Mb54: fusion polypeptide of supercharged GFP and activating monobody Mb54 (aka Mb1) (protein, left off: large carriers) GSVSSVPTKLEVVAATPTSLLISWDAQTYQMYDYVSYYRITYGETGGNSPVQEFTVPGYYSTATISGLKPGVDYTITVYAEGYYSSYSPISINYRT", "values": [{"measurement": "delivery into HEK293 cells", "result": "delivered into cells"}]}, {"molecule": "sGFP-Mb6: fusion polypeptide of supercharged GFP and activity-neutral monobody Mb6 (protein, left off: large carriers) GSVSSVPTKLEVVAATPTSLLISWDAFGHQYEPVYYYRITYGETGGNSPVQEFTVPGYYSTATISGLKPGVDYTITVYAWYVDGSYSSPISINYRT", "values": [{"measurement": "delivery into HEK293 cells", "result": "delivered into cells"}]}]}
